Values of other authors as cited in patent publication US20070082063A1, “Risk assessment and correction of membrane damage of the upper GI tract” (priority 2005, published 2007).

Conditions: dogs

CCCCC/C=C\C/C=C\C/C=C\C/C=C\CCCC(=O)O [ARA, arachidonic acid]
level in plasma phospholipids: 20-30% | level in red cell membranes: 18-25%
